Tested on: visceral pain writhing responses
Experiment: Visceral pain, acetic acid induced writhing responses
Type: in vivo, Male ICR mice
Settings: i.v.; estimated or calculated from dose range
Protocol: Male ICR mice (average body weight 25 g, Harlan, Israel) were pretreated by i.v. injection at volume dose of 5 ml/kg of vehicle, control and test compounds at various doses. Other routes of administration were tested for selected compounds including i.m. or s.c. injections at volume dose of 2.5 ml/kg and p.o. gavage at volume dose of 5 ml/kg. Compounds were dissolved in CREMOPHOR®:Ethanol and diluted 1:20 in saline prior to injection or gavage. Compounds administered i.v. were injected fifteen minutes before pain induction, whereas compounds administered i.m., s.c. or p.o. were supplied thirty minutes before pain induction, unless otherwise indicated. Each treatment group, except for controls comprising at least 30 animals, was composed of at least 6 animals. Fifteen or thirty minutes after drug administration, depending on the route of administration, the mice were injected i.p. with 10 ml/kg of 0.6% acetic acid and the number of visceral pain related behaviors (writhing movements globally defined as WR, i.e. stretching, contractions of the abdomen accompanied by an elongation of the body and extension of the hind limbs) was counted over a period of 5 minutes, starting 5 minutes after the acetic acid administration. […] The results are expressed as mean number of writhing responses ±SEM. Data were analyzed using analysis of variance (ANOVA) followed by post-hoc Fisher test.

With `CN1CC[C@]23c4c5ccc(O)c4O[C@H]2[C@@H](O)C=C[C@H]3[C@H]1C5` [morphine, reference compound] the “IC50 in visceral pain” value was 1.07 mg/kg.

Reference: patent publication US20090054376A1, “BENZOFURAN DERIVATIVES WITH THERAPEUTIC ACTIVITIES” (Pharmos Corporation, priority 2005, published 2009)
